Some of these results come from one statement about several compounds together.
Molecular target: T1, LPAAT-β (Homo sapiens, UniProt O15120)
T1 sequence (O15120 24-278): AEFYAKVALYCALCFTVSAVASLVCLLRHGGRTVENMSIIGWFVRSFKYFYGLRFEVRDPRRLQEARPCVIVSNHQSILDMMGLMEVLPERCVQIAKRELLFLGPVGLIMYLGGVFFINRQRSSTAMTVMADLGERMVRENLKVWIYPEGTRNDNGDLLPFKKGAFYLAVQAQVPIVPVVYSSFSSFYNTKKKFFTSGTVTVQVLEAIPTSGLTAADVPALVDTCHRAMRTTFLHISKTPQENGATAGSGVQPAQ
Test: secondary thin layer chromatography (TLC) assay measuring fluorescent PA
Format: biochemical
Parameters: The assay utilizes full-length, recombinant, baculovirus-produced LPAAT-β; made in house

## CCCc1cccc(C=NNC(=S)NC(=O)c2ccccc2)c1O [Compound 10c]
  IC50: > 10 µM
